For five molecules, T/C and survivor count results are on record in PubChem BioAssay AID328 (DTP/NCI, 2004).

Structures are written as SMILES. The list does not hold the whole screen: it covers a few groups of compounds. Not every dose and run of a compound is shown. T/C is the treated group as % of the vehicle group. Some doses have a count of surviving animals in place of a T/C: the source holds a T/C of zero for them, seemingly a mark for toxic or unscored doses. Counts of survivors are from the toxicity check (mostly the fifth day) where no day follows; animals may have died later. Schedule codes are those of the source, taken here to give the interval after Q, in days (D) or hours (H), and the number of doses after X. Where survival is the endpoint, this PubChem deposit counts one and a half times the control or more as active, and values a quarter to a half above the control carry no call in these data; other NCI protocols may use other cut-offs. Some entries hold several experiments; the values are given in rising order. Some entries show no survivor count and are marked so; the dose need not have been tolerated. Some T/C values are followed by the survivors on the day toxicity was checked, most often the fifth; where neither a count nor a note follows, no animal had died by that day.

The assay relates to BDF1 mice, P388 leukemia ip, median survival T/C. Nature of the assay: NCI In Vivo Anticancer Drug Screen. Data for tumor model P388 Leukemia (intraperitoneal) in B6D2F1 (BDF1) mice. The settings on record: T/C endpoint: median survival time, higher T/C = longer survival. In short, it runs like this:
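T/C = treated-group survival ÷ vehicle-control survival; tumour transplanted into mice before dosing.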

With `CC[C@@H](C)[C@@H]1NC(=O)/C(=C(\C)O)C1=O.c1ccc(CNCCNCc2ccccc2)cc1`, the T/C is, setting by setting: (dose: 10.0 mg/kg/injection, schedule: Q01DX010 (ip), vehicle: saline) 90 and 119 % of control; (dose: 14.0 mg/kg/injection, schedule: Q01DX010 (ip), vehicle: saline) 100 and 109 % of control; (dose: 20.0 mg/kg/injection, schedule: Q01DX010 (ip), vehicle: saline) 100 and 104 % of control; (dose: 30.0 mg/kg/injection, schedule: Q01DX010 (ip), vehicle: saline) 90 and 95 % of control.
Consider `CC1(C)CN1P(=O)(Nc1ncccn1)N1CC1(C)C` (stereo not drawn), for which the T/C reads like this: (dose: 13.3 mg/kg/injection, schedule: Q01DX009 (ip), vehicle: saline) 100 % of control; (dose: 20.0 mg/kg/injection, schedule: Q01DX009 (ip), vehicle: saline) 113 % of control; (dose: 30.0 mg/kg/injection, schedule: Q01DX009 (ip), vehicle: saline) 118 % of control [5 of 6 alive]; (dose: 44.0 mg/kg/injection, schedule: Q01DX009 (ip), vehicle: saline) 136 % of control; (dose: 45.0 mg/kg/injection, schedule: Q01DX009 (ip), vehicle: saline) 145 % of control; (dose: 66.0 mg/kg/injection, schedule: Q01DX009 (ip), vehicle: saline) 154 % of control [5 of 6 alive]. Further, the T/C was 190 % of control (dose: 100.0 mg/kg/injection, schedule: Q01DX009 (ip), vehicle: saline); 172 % of control (dose: 100.0 mg/kg/injection, schedule: Q04DX003 (ip), vehicle: saline sonified); 213 % of control (dose: 150.0 mg/kg/injection, schedule: Q01DX009 (ip), vehicle: saline); 136 % of control (dose: 200.0 mg/kg/injection, schedule: Q04DX003 (ip), vehicle: saline sonified); 200 % of control (dose: 400.0 mg/kg/injection, schedule: Q04DX003 (ip), vehicle: saline sonified).
`NC(=O)c1[nH]cnc1/N=N\N(CCCl)CCCl`: the T/C was 109 % of control (dose: 3.13 mg/kg/injection, schedule: Q01DX010 (ip), vehicle: carboxymethylcellulose (CMC)); 109 % of control (dose: 6.25 mg/kg/injection, schedule: Q01DX010 (ip), vehicle: carboxymethylcellulose (CMC)); 127 % of control (dose: 12.5 mg/kg/injection, schedule: Q01DX010 (ip), vehicle: carboxymethylcellulose (CMC)); 181 % of control (dose: 25.0 mg/kg/injection, schedule: Q01DX010 (ip), vehicle: carboxymethylcellulose (CMC)); 183 % of control (dose: 25.0 mg/kg/injection, schedule: Q01DX010 (ip), vehicle: saline); 241 % of control (dose: 50.0 mg/kg/injection, schedule: Q01DX010 (ip), vehicle: saline). The T/C reads like this: (dose: 100.0 mg/kg/injection, schedule: Q01DX010 (ip), vehicle: saline) 295 % of control; (dose: 200.0 mg/kg/injection, schedule: Q01DX001 (ip), vehicle: other) 254 and 336 % of control; (dose: 200.0 mg/kg/injection, schedule: Q01DX010 (ip), vehicle: saline) 91 % of control; (dose: 300.0 mg/kg/injection, schedule: Q01DX001 (ip), vehicle: other) 331 and 451 % of control; (dose: 400.0 mg/kg/injection, schedule: Q01DX001 (ip), vehicle: other) 524 and 527 % of control.
`CCC[As](=O)(O)O`: the T/C is 100 % of control (dose: 11.0 mg/kg/injection, schedule: Q01DX001 (ip), vehicle: saline); 100 % of control (dose: 16.0 mg/kg/injection, schedule: Q01DX001 (ip), vehicle: saline); 131 % of control (dose: 25.0 mg/kg/injection, schedule: Q01DX001 (ip), vehicle: Klucel (hydroxypropylcellulose) (HPC)); 104 % of control (dose: 25.0 mg/kg/injection, schedule: Q01DX001 (ip), vehicle: saline); 100 % of control (dose: 37.5 mg/kg/injection, schedule: Q01DX001 (ip), vehicle: saline); 109 % of control (dose: 50.0 mg/kg/injection, schedule: Q01DX001 (ip), vehicle: Klucel (hydroxypropylcellulose) (HPC)). Further, the T/C (dose: 100.0 mg/kg/injection, schedule: Q01DX001 (ip), vehicle: Klucel (hydroxypropylcellulose) (HPC)) is 90 [4 of 6 alive] and 118 % of control. Moreover, the survivor count (dose: 200.0 mg/kg/injection, schedule: Q01DX001 (ip), vehicle: Klucel (hydroxypropylcellulose) (HPC)) is on record as 3 of 6 and the survivor count (dose: 400.0 mg/kg/injection, schedule: Q01DX001 (ip), vehicle: Klucel (hydroxypropylcellulose) (HPC)) is given as 1 of 6.
For the molecule `CN[N+](=O)[O-]`, the T/C was 107 % of control [survivor count not shown] (dose: 12.5 mg/kg/injection, schedule: Q01DX001 (ip), vehicle: saline with Tween-80); 110 % of control [survivor count not shown] (dose: 25.0 mg/kg/injection, schedule: Q01DX001 (ip), vehicle: saline with Tween-80); 136 % of control [survivor count not shown] (dose: 50.0 mg/kg/injection, schedule: Q01DX001 (ip), vehicle: saline with Tween-80).
